Measured values reported in paper PMC6094399, “New tools for carbohydrate sulfation analysis: heparan sulfate 2-O-sulfotransferase (HS2ST) is a target for small-molecule protein kinase inhibitors” (Biochemical Journal, 2018).

Biological target: T1, HS2ST (Gallus gallus, UniProt Q76KB1)
T1 construct: made in house; host or cells: Escherichia coli Rosetta-gami (DE3), modified pMAL-c2x plasmid
T1 sequence (Q76KB1 69-356): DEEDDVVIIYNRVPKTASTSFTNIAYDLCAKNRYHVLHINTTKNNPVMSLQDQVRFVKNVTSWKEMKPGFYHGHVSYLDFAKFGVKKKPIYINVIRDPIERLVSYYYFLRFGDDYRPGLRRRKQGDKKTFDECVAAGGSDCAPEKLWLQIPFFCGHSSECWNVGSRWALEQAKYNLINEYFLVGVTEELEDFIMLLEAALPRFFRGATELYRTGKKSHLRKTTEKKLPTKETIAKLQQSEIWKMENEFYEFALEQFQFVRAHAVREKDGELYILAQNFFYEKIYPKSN
Test: DSF thermal shift/stability assay of MBP-HS2ST
Type: binding, Chicken
Settings: 5 μM MBP-HS2ST; result in words

## Nc1ncnc2c1ncn2[C@@H]1O[C@H](COP(=O)(O)OS(=O)(=O)O)[C@@H](O)[C@H]1O [APS, adenosine 5′-phosphosulfate]
  thermal stabilisation of HS2ST (DSF): did not induce HS2ST stabilisation
